Assay results: paper doi:10.1101/2020.12.09.417477 (bioRxiv, 2020)
Like-named read-outs stand apart in the source and are kept apart here. Results are given in words; binding and its absence hold for the method and conditions named. In cells and extracts the contact can be indirect. Here binding means that the protein was enriched with, or labelled near, the bait; the list need not be complete. Blank lines part the entries; values can stand above or below the molecule they belong to.

Sequences of proteins named here, by UniProt entry; tags and fusion partners are left off.
UniProt P0A717: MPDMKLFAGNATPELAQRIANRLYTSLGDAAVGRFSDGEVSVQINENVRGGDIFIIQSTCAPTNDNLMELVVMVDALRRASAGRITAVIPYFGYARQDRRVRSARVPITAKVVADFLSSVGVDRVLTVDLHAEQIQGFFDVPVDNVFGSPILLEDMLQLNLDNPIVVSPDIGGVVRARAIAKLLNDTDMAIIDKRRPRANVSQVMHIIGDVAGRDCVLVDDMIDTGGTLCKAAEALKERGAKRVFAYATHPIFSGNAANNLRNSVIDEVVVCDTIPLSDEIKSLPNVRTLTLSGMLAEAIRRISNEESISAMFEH

How the values were obtained:
Assay in all cases: affinity purification with mass spectrometry
[1] = molecular target: C-terminally SPA-tagged CobB (E. coli) (UniProt P75960)
[2] = molecular target: C-terminally SPA-tagged CobB (E. coli) (UniProt P75960); remark: listed apart in the source
SPA-tagged Prs (E. coli) = SPA-tagged Prs (E. coli) (UniProt P0A717)

binding [1]: binds
Molecule: phosphoribosyl pyrophosphate synthase Prs (from UniProt P0A717 1-315) (enzyme)

binding [2]: binds
B1: FabG (enzyme, UniProt P0AEK2 1-244)
chain: MNFEGKIALVTGASRGIGRAIAETLAARGAKVIGTATSENGAQAISDYLGANGKGLMLNVTDPASIESVLEKIRAEFGEVDILVNNAGITRDNLLMRMKDEEWNDIIETNLSSVFRLSKAVMRAMMKKRHGRIITIGSVVGTMGNGGQANYAAAKAGLIGFSKSLAREVASRGITVNVVAPGFIETDMTRALSDDQRAGILAQVPAGRLGGAQEIANAVAFLASDEAAYITGETLHVNGGMYMV

binding (SPA-tagged Prs (E. coli)): binds
B2: CobB (enzyme, E. coli, UniProt P75960 1-279, looked up)
chain: MLSRRGHRLSRFRKNKRRLRERLRQRIFFRDKVVPEAMEKPRVLVLTGAGISAESGIRTFRAADGLWEEHRVEDVATPEGFDRDPELVQAFYNARRRQLQQPEIQPNAAHLALAKLQDALGDRFLLVTQNIDNLHERAGNTNVIHMHGELLKVRCSQSGQVLDWTGDVTPEDKCHCCQFPAPLRPHVVWFGEMPLGMDEIYMALSMADIFIAIGTSGHVYPAAGFVHEAKLHGAHTVELNLEPSQVGNEFAEKYYGPASQVVPEFVEKLLKGLKAGSIA
